No constants are given. Whether binding was seen depends on the method and setting. Binding seen in cells or lysates may run through a third protein. Binding calls can cover weak binding; strength is not graded here.
Target: T1, HSPA13 (UniProt P48723)
T1 sequence: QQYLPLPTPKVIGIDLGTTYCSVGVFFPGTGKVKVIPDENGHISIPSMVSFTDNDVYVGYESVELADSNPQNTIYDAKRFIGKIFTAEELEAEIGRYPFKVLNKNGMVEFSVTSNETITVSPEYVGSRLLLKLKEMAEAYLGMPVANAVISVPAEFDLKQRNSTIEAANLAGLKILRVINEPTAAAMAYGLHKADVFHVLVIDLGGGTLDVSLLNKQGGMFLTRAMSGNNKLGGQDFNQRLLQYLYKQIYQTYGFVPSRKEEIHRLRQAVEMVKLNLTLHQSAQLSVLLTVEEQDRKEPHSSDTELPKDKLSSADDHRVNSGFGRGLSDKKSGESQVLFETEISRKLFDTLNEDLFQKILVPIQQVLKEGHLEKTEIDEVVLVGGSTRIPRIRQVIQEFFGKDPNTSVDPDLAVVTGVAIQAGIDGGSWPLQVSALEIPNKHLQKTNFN
Experiment: co-IP; HSPA13 immunoprecipitation on isolated supermere fractions (intact particles); depletion of the other proteins from the supermere fraction relative to isotype control

DDR1
binding: binds

Source: publication PMC12902025
